From patent CN117751139A
Results are given in words; binding and its absence hold for the method and conditions named. Some results given as binding are weak or reduced against the parent protein; the word gives no strength.

By UniProt entry, the sequences of proteins in these tests, tags left out. Where a name states a change or a piece, a line headed by the entry shows the natural chain unless it says otherwise. Residues count along the entry.
UniProt Q96NY8: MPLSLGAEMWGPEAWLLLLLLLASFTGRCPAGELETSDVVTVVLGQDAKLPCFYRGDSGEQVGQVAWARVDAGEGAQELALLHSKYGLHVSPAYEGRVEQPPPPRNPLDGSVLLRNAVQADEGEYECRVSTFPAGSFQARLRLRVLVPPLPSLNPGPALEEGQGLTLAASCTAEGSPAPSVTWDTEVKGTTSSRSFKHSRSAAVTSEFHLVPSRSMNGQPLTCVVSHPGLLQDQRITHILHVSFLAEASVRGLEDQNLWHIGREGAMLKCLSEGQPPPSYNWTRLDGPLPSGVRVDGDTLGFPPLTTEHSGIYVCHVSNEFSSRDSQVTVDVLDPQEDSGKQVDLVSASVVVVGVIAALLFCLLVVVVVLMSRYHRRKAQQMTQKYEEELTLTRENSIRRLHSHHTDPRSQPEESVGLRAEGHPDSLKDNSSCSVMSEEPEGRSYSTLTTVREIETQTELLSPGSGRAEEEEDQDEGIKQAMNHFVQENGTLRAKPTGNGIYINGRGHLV
Nectin-4 expressed by normal differentiated human keratinocytes (NHEK): residues 32-510 of Q96NY8
Nectin-4 extracellular domain Fc fusion recombinant protein (Nec4-VCC): residues 32-349 of Q96NY8
Nectin-4 IgV-like domain Fc fusion recombinant protein (Nec4-V): residues 32-147 of Q96NY8

Assays:
[1] = target: human Nectin-4 on CHO cells transfected with human Nectin-4 cDNA (human) (UniProt Q96NY8); experiment: flow cytometry competition on CHO cells with human Nectin-4; competitor Nec1-VCC
[2] = target: Nectin-4 IgV-like domain Fc fusion recombinant protein (Nec4-V) (human) (UniProt Q96NY8); experiment: ELISA on coated Fc fusion
[3] = target: human Nectin-4 with N-terminal Flag epitope tag, on transfected MDA-MB231 cells (human) (UniProt Q96NY8); experiment: flow cytometry on MDA-MB231 cells transfected with N-terminally Flag-tagged Nectin-4
[4] = target: Nectin-4 expressed by normal differentiated human keratinocytes (NHEK) (human) (UniProt Q96NY8); experiment: flow cytometry on normal differentiated human keratinocytes (NHEK), 8 pM-33 nM
[5] = target: Nectin-4 extracellular domain Fc fusion recombinant protein (Nec4-VCC) (human) (UniProt Q96NY8); experiment: ELISA on coated Fc fusion, peroxidase-conjugated antibody
[6] = target: Nectin-4 IgV-like domain Fc fusion recombinant protein (Nec4-V) (human) (UniProt Q96NY8); experiment: as above

Measured: binding

B1: Ch-15A7.5 (antibody, V domains shown)
VH: EVKLVESGGGLVQPGGSRKLSCAASGFTFSNYGMAWVRQAPGKGPEWVAFISNLAYGINYADTVTGRFTISRENAKNTLYLEMRSLRSEDTAMYYCARGARATGWFAYWGQGTLVTVSA
VL: DIVMTQSQKFMSTSIGDRVSVTCKASQNVDTHVAWYQEKPGQSPKALIYSASYRYSGVPDRFTGSGSGTDFTLTISNVQSEDLADYFCQQYNSYPLTFGGGTKLEIK
binds: all assays above
